Experimental data: PubChem BioAssay AID1259405 (NCATS, 2018)
Aim: 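Mouse-designed siRNAs used to find CHO productivity engineering targets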 (primary screen). Cells: Chinese hamster CHO-K1 ovary cells with stable secreted eGFP expression. Reagent: single siRNA against mouse genes, 0.8 pmol siRNA per well (2 µl of 400 nM stock). Time to read-out: 3 days. Read-out: 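Percent of the per-plate non-targeting control median for intracellular GFP per well by laser scanning cytometry and for cell viability by ATP luminescence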. Reading the numbers: GFP, % of control: higher = more GFP per well, higher productivity; viability (ATP), % of control: higher = more viable cells (more ATP). Rule for the call: 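a knock-down is called active if GFP reaches 120% or more of non-targeting control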.
In all, the deposit lists about 50,000 reagents; below is an unselected part. Of all reagents, about 4,000 (8%) were called active. 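Mouse siRNA library applied to hamster cells; one well for each siRNA.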 Reagents against one gene are numbered here.

| target | siRNA no. | GFP, % of control | viability (ATP), % of control | call |
| --- | --- | --- | --- | --- |
| Evi2b (GeneID 216984) | 1 | 56 | 62.2 | inactive |
| Evi2b (GeneID 216984) | 2 | 67.9 | 80.8 | inactive |
| Evi2b (GeneID 216984) | 3 | 78 | 83 | inactive |
| Ankrd10 (GeneID 102334) | 1 | 80.3 | 47 | inactive |
| Ankrd10 (GeneID 102334) | 2 | 57.6 | 57.7 | inactive |
| Ankrd10 (GeneID 102334) | 3 | 79.6 | 65.6 | inactive |
| Epm2aip1 (GeneID 77781) | 1 | 75 | 81.1 | inactive |
| Epm2aip1 (GeneID 77781) | 2 | 45.1 | 37 | inactive |
| Epm2aip1 (GeneID 77781) | 3 | 96.1 | 87.6 | inactive |
| Or52d3 (GeneID 57250) | 1 | 87.6 | 83.4 | inactive |
| Or52d3 (GeneID 57250) | 2 | 79.2 | 74.8 | inactive |
| Or52d3 (GeneID 57250) | 3 | 30 | 48.7 | inactive |
| Slc25a31 (GeneID 73333) | 1 | 123 | 124 | active |
| Slc25a31 (GeneID 73333) | 2 | 127 | 123 | active |
| Slc25a31 (GeneID 73333) | 3 | 62.5 | 75.1 | inactive |
| Or8s8 (GeneID 258277) | 1 | 89.4 | 44.3 | inactive |
| Or8s8 (GeneID 258277) | 2 | 99 | 84.1 | inactive |
| Or8s8 (GeneID 258277) | 3 | 35.1 | 31.2 | inactive |
| Trim47 (GeneID 217333) | 1 | 139 | 106 | active |
| Trim47 (GeneID 217333) | 2 | 122 | 102 | active |
| Trim47 (GeneID 217333) | 3 | 105 | 83.2 | inactive |
| Tesk2 (GeneID 230661) | 1 | 132 | 106 | active |
| Tesk2 (GeneID 230661) | 2 | 85.6 | 74.6 | inactive |
| Tesk2 (GeneID 230661) | 3 | 87.7 | 57.9 | inactive |
| Coro2a (GeneID 107684) | 1 | 102 | 60.2 | inactive |
| Coro2a (GeneID 107684) | 2 | 78.9 | 75.2 | inactive |
| Coro2a (GeneID 107684) | 3 | 135 | 66.2 | active |
| Npsr1 (GeneID 319239) | 1 | 106 | 86.9 | inactive |
| Npsr1 (GeneID 319239) | 2 | 98.4 | 82.3 | inactive |
| Npsr1 (GeneID 319239) | 3 | 55.7 | 50.9 | inactive |
| Rpl39l (GeneID 68172) | 1 | 68.4 | 70.1 | inactive |
| Rpl39l (GeneID 68172) | 2 | 61.3 | 53.5 | inactive |
| Rpl39l (GeneID 68172) | 3 | 67.6 | 78 | inactive |

As entered above.
Value of Or8s8 (GeneID 258277) #2 under “viability (ATP), % of control”: 84.1
Coro2a (GeneID 107684) #2, call → inactive
Entry for Ankrd10 (GeneID 102334) #2 in “GFP, % of control”: 57.6
Under “call”, Coro2a (GeneID 107684) #1 has inactive
Entry of Slc25a31 (GeneID 73333) #1 in “GFP, % of control”: 123
Npsr1 (GeneID 319239) #1, viability (ATP), % of control: 86.9

The list goes on.
| target | siRNA no. | GFP, % of control | viability (ATP), % of control | call |
| --- | --- | --- | --- | --- |
| Zfp263 (GeneID 74120) | 1 | 76.6 | 106 | inactive |
| Zfp263 (GeneID 74120) | 2 | 41.5 | 77.4 | inactive |
| Zfp263 (GeneID 74120) | 3 | 50.3 | 81.9 | inactive |
| Reep3 (GeneID 28193) | 1 | 159 | 137 | active |
| Reep3 (GeneID 28193) | 2 | 47.4 | 53.1 | inactive |
| Reep3 (GeneID 28193) | 3 | 49.6 | 76.7 | inactive |
| Or2a12 (GeneID 258292) | 1 | 91.6 | 85.6 | inactive |
| Or2a12 (GeneID 258292) | 2 | 90.5 | 77.9 | inactive |
| Or2a12 (GeneID 258292) | 3 | 80.8 | 36.3 | inactive |
| Tap1 (GeneID 21354) | 1 | 97.3 | 95.1 | inactive |
| Tap1 (GeneID 21354) | 2 | 69.9 | 65.3 | inactive |
| Tap1 (GeneID 21354) | 3 | 90.4 | 81 | inactive |
| Prag1 (GeneID 244418) | 1 | 49.7 | 22.7 | inactive |
| Prag1 (GeneID 244418) | 2 | 77.1 | 71.3 | inactive |
| Prag1 (GeneID 244418) | 3 | 44.8 | 28.2 | inactive |
| Or2i1 (GeneID 258219) | 1 | 70.8 | 70.1 | inactive |
| Or2i1 (GeneID 258219) | 2 | 81.7 | 92.6 | inactive |
| Or2i1 (GeneID 258219) | 3 | 51.2 | 60.5 | inactive |
| Dnajc10 (GeneID 66861) | 1 | 125 | 76.3 | active |
| Dnajc10 (GeneID 66861) | 2 | 61.6 | 39 | inactive |
| Dnajc10 (GeneID 66861) | 3 | 93.8 | 55.6 | inactive |
| Csrnp2 (GeneID 207785) | 1 | 38.5 | 38.8 | inactive |
| Csrnp2 (GeneID 207785) | 2 | 57.6 | 64.8 | inactive |
| Csrnp2 (GeneID 207785) | 3 | 75.8 | 77.5 | inactive |
| Gpr18 (GeneID 110168) | 1 | 140 | 57 | active |
| Gpr18 (GeneID 110168) | 2 | 84.7 | 59.7 | inactive |
| Gpr18 (GeneID 110168) | 3 | 98.9 | 81.7 | inactive |
| Stk32c (GeneID 57740) | 1 | 75.7 | 65.7 | inactive |
| Stk32c (GeneID 57740) | 2 | 92.1 | 50.6 | inactive |
| Stk32c (GeneID 57740) | 3 | 84.4 | 62.6 | inactive |
| Tns4 (GeneID 217169) | 1 | 46 | 49.6 | inactive |
| Tns4 (GeneID 217169) | 2 | 82.7 | 35 | inactive |
| Tns4 (GeneID 217169) | 3 | 76.5 | 65.5 | inactive |
| Abcb4 (GeneID 18670) | 1 | 56.1 | 45.3 | inactive |
| Abcb4 (GeneID 18670) | 2 | 85.8 | 102 | inactive |
| Abcb4 (GeneID 18670) | 3 | 61.7 | 82.1 | inactive |
| AY074887 (GeneID 246735) | 1 | 63.9 | 71.3 | inactive |
| AY074887 (GeneID 246735) | 2 | 101 | 82.6 | inactive |
| AY074887 (GeneID 246735) | 3 | 78.6 | 68.1 | inactive |
| Krt32 (GeneID 16670) | 1 | 10.5 | 75.7 | inactive |
| Krt32 (GeneID 16670) | 2 | 44.7 | 50.6 | inactive |
| Csf3 (GeneID 12985) | 1 | 44.5 | 72.8 | inactive |
| Csf3 (GeneID 12985) | 2 | 16.8 | 31.6 | inactive |
| Csf3 (GeneID 12985) | 3 | 87.2 | 64.2 | inactive |
| Itga2 (GeneID 16398) | 1 | 74.5 | 69.6 | inactive |
| Itga2 (GeneID 16398) | 2 | 113 | 92.9 | inactive |
| Or2ag13 (GeneID 258591) | 1 | 75.5 | 53.1 | inactive |
| Or2ag13 (GeneID 258591) | 2 | 102 | 73.3 | inactive |
| Or2ag13 (GeneID 258591) | 3 | 107 | 102 | inactive |
| Dennd4b (GeneID 229541) | 1 | 48.2 | 54.7 | inactive |
| Dennd4b (GeneID 229541) | 2 | 98.4 | 110 | inactive |
| Dennd4b (GeneID 229541) | 3 | 121 | 144 | active |
